The other results are listed elsewhere or left out. These are further read-outs of the screen, such as a control signal, another cell line or another target. No call is given for them. The list favours compounds with an active or inconclusive main result. Words in brackets tell the shape of the fitted curve; partial curves, single points and poor fits give uncertain potencies.
Experiment: IkB Signaling
Settings: ABC-DLBCL IkBa-CBG/CBR dual luciferase ratio (green luciferase fused to IkBa over red control in OCI-Ly3 lymphoma cells), 4 h; measured here: control luc red channel unless noted
Outline: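 Curves were fitted separately to fusion (green), unfused (red) and ratio luminescence, then classed by r2, magnitude and activity. Cells: OCI-Ly3, 4 h compound plus doxycycline at 37C; 10 uM MG-132 defined full response.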

Row | SMILES | AC50
1 | Cc1cccc(N2CCN(c3nc4ccc(C)cc4n4cnnc34)CC2C)c1 (stereo not drawn) | 39.8 µM [falling, single point]
2 | O=C(NC1CCCCC1)N1CCc2ccccc21 | 12.6 µM [falling, partial curve]
3 | CCOc1ccccc1N(CC)C(=O)c1noc2c1COc1ccc(C)cc1-2 | 2.51 µM [falling, full curve, poor fit]
4 | O=C(NC1CCCCC1)c1ccc2c(c1)N(Cc1ccc(Cl)cc1)C(=O)c1ccccc1S2=O (stereo not drawn) | 5.01 µM [falling, partial curve]
5 | O=C(c1ccc(F)cc1)n1nc(-c2ccccc2)nc1NCc1ccco1 | 15.8 µM [falling, partial curve]
6 | CCn1cc(C(=O)NCCc2ccc(Cl)cc2)c(=O)c2cc(S(=O)(=O)N3CCC(C)CC3)ccc21 | 10 µM [falling, partial curve]
7 | Cc1ccc(NC(=O)c2oc3ccc(S(=O)(=O)N4CCC5(CC4)OCCO5)cc3c2C)c(C)c1 | 31.6 µM [falling, partial curve]
8 | O=C(Nc1ccc(S(=O)(=O)N(Cc2ccccc2)c2ccccc2)cc1)c1ccc([N+](=O)[O-])cc1 | 15.8 µM [falling, single point]
9 | O=c1c2ccccc2sc2nc(C3CCCCC3)n(Cc3ccco3)c(=O)c12 | 1 µM [falling, partial curve]
10 | CC(C)CCNC(=O)Nc1cc(C(=O)NCc2cccc(F)c2)ccc1N1CCCC1 | 25.1 µM [falling, single point]
11 | COc1ccc2c(c1)CC(C(=O)NCCN1CCN(c3cccc(C)c3C)CC1)CO2 (stereo not drawn) | 2.51 µM [falling, partial curve, poor fit]
12 | CCOC(=O)c1ccc(CN(Cc2ccc(C)cc2)S(=O)(=O)c2ccc(NC(C)=O)cc2)cc1 | 39.8 µM [falling, single point]
13 | CCn1cc2nc(SCc3ccc(F)cc3)n(Cc3ccc(Cl)cc3)c(=O)c2n1 | 12.6 µM [falling, partial curve]
14 | CC(=O)Nc1ccc(Nc2nnc(-c3ccc(C)c(S(N)(=O)=O)c3)c3ccccc23)cc1 | 39.8 µM [falling, single point]
15 | C=CCn1c(-c2ccccc2)c[nH]c1=S | 3.16 µM [falling, partial curve]
16 | CC(C)Cn1cc(C(=O)N2CCN(c3cccc(Cl)c3)CC2)c2c3ccccc3n(C)c2c1=O | 10 µM [falling, partial curve]
17 | CC(=O)N1CCCc2cc(S(=O)(=O)N3CCCC(C(=O)Nc4cccc(Cl)c4C)C3)ccc21 (stereo not drawn) | 0.1 µM [falling, full curve, poor fit]
18 | Cc1ccc(C)c(OC(=O)CSc2nnc(-c3ccc4c(c3)OCO4)o2)c1 | 25.1 µM [falling, single point]
19 | CCOc1cc(C(=O)Nc2ccc(S(=O)(=O)Nc3cc(OC)nc(OC)n3)cc2)cc(OCC)c1OCC | 2 µM [falling, partial curve]

2 entries picked at random from those above:
Row | SMILES | AC50
6 | CCn1cc(C(=O)NCCc2ccc(Cl)cc2)c(=O)c2cc(S(=O)(=O)N3CCC(C)CC3)ccc21 | 10 µM [falling, partial curve]
1 | Cc1cccc(N2CCN(c3nc4ccc(C)cc4n4cnnc34)CC2C)c1 (stereo not drawn) | 39.8 µM [falling, single point]

Following part

Row | SMILES | AC50
20 | COc1ccc(C/C(O)=C(\C#N)c2nc3ccccc3s2)cc1 | 25.1 µM [falling, partial curve]
21 | CCC1=C(c2ccc(C)cc2)S(=O)(=O)N=C1N1CCC(C(=O)NCc2ccccc2Cl)CC1 | 12.6 µM [falling, partial curve]
22 | CCCCCOC(=O)c1ccc(OC(=O)c2sc3ncn(Cc4cccc(F)c4)c(=O)c3c2C)cc1 | 2.51 µM [rising, partial curve]
23 | CCCN(CCC)CCNC(=O)C1CCCN(S(=O)(=O)c2cccc3nsnc23)C1 (stereo not drawn) | 0.794 µM [rising, full curve, poor fit]
24 | Cc1ccc(C)c(N2CCN(CCCNC(=O)c3nnc(Cc4ccc(F)cc4Cl)o3)CC2)c1 | 25.1 µM [falling, partial curve]
25 | Cc1cccc(C#Cc2ccccc2)n1 | 0.631 µM [rising, full curve, poor fit]
26 | CCc1ccc(NC(=O)Cn2c(=O)n(CC3CCCO3)c(=O)c3cc(OC)c(OC)cc32)cc1 (stereo not drawn) | 15.8 µM [falling, partial curve, poor fit]
27 | Cc1ccc(-c2cc(C(F)(F)F)c(C#N)c(SCC(=O)O)n2)cc1 | 1.58 µM [falling, partial curve]
28 | COc1ccc(-c2nc(NC(=O)C3CCN(c4nc5ccccc5o4)CC3)sc2C)cc1 | 12.6 µM [falling, partial curve]
29 | O=C(CN1C(=O)C2CCCCN2c2ccc(C(=O)N3CCCC3)cc21)NCc1cccc(F)c1 (stereo not drawn) | 39.8 µM [falling, single point]
30 | COc1ccc(OC)c(C2C(C#N)=C(N)Oc3c2c(C)nn3-c2ccc(C)cc2)c1 (stereo not drawn) | 3.16 µM [falling, full curve] [measured here: IkB-luc green channel]
31 | Cc1ccccc1CNC(=O)C(=O)NCC(c1cccs1)S(=O)(=O)c1ccc(Cl)cc1 (stereo not drawn) | 15.8 µM [falling, single point]
32 | O=C(NCc1ccccc1)c1ccc2c(c1)nc1n2CCCCC1 | 15.8 µM [falling, single point]
33 | CCn1ccc(C(=O)Nc2ccc(S(=O)(=O)Nc3ccccc3OC)cc2)n1 | 20 µM [falling, partial curve]
34 | COc1cc2c(cc1OC)CN(C(=O)CC1CC3CCC1C3)CC2 (stereo not drawn) | 7.94 µM [falling, full curve]
35 | Cc1c(Cl)cccc1-n1ncc(C(=O)Nc2ccc(F)cc2F)c1C1CCN(C(=O)OC(C)(C)C)CC1 | 15.8 µM [falling, partial curve]
36 | COC(=O)C1CCN(C(c2ccccc2)c2sc3nc(-c4ccco4)nn3c2O)CC1 (stereo not drawn) | 15.8 µM [rising, partial curve]
37 | CCN(CC)c1ccc(NC(=O)CN2C(=O)c3cccnc3Sc3ccccc32)c(C)c1 | 15.8 µM [falling, partial curve]
38 | CC(=O)N1CCc2c(sc3c2c(=O)n(CCc2ccccc2)c(=O)n3Cc2cccc(C)c2)C1 | 6.31 µM [falling, single point]

Source: PubChem BioAssay AID445 (National Center for Advancing Translational Sciences (NCATS), 2006)
